Drawing on paper PMC9974481, “Structure of SpoT reveals evolutionary tuning of catalysis via conformational constraint” (Nature Chemical Biology, 2022), this text covers binding for one substance.

No constants are given. Whether binding was seen depends on the method and setting.

Assay [1] has as its target Acinetobacter baumannii SpoT (Acinetobacter baumannii). As to the kind of experiment: SEC-SAXS; protein at 8 mg/ml, Shodex KW404-4F column in line with SAXS, 500 mM NaCl, 2 mM TCEP, 30 mM Tris-HCl pH 7.0, 10 °C; both purified. A general note: SEC sorts molecules by how far they enter the pores of the column.
Assay [2] has the same target. Nature of the assay: SEC; analytical SEC, 100 µl of protein at 1 mg/ml on Superdex 200 Increase 10300 in SEC buffer (50 mM HEPES pH 7.5, 500 mM NaCl, 500 mM KCl, 2 mM MgCl2, 1 mM TCEP, 0.002% mellitic acid, 1 mM MnCl2); both purified.

As to “Acinetobacter baumannii SpoT (from UniProt A0ABX6CKF0 1-701) (enzyme)”, the results for the binding result in assay [1] and in assay [2] were “no binding (tested: 8 mg ml^−1)” and “no binding (tested: 1 mg ml^−1)”, respectively.
